Assay results reported in article PMC12825198.
These are yes or no findings as the source states them, for the method shown. In cells and extracts the contact can be indirect. Some entries that bind do so weakly or less than the wild type. For some assays here: Where a sequence is shown, tags or fusion partners need not be part of it.

Sequences of proteins named here, by UniProt entry; tags and fusion partners are left off. A change or cut given only in a name is not applied to a line headed by its entry.
UniProt P05556: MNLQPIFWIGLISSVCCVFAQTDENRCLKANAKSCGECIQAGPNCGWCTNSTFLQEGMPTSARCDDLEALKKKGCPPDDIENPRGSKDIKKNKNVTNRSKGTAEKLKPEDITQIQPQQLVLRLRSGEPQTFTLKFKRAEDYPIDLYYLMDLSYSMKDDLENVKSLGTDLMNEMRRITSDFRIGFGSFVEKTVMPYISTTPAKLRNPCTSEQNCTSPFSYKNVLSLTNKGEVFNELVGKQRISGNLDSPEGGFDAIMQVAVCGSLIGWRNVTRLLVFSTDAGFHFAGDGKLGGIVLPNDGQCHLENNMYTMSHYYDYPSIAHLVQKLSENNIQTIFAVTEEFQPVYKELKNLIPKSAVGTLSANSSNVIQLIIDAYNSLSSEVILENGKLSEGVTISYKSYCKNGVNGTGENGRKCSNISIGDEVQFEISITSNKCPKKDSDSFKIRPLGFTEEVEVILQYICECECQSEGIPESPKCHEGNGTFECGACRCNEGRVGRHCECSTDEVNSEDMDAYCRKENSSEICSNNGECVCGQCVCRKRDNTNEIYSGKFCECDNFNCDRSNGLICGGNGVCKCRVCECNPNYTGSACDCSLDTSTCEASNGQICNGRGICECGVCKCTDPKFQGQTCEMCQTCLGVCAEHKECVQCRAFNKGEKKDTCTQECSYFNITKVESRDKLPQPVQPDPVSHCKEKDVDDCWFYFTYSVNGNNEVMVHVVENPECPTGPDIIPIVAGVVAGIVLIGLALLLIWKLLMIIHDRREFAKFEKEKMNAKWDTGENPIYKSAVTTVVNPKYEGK

What was measured:
[1] = target: T1, peroxidasin (PXDN) (human (endogenous in HK1)) (UniProt Q92626); test: co-IP; lysate of 2 x 10^7 cells incubated overnight at 4 C with anti-PXDN antibody (5 ug), protein A/G magnetic beads 2 h at 4 C, immunoblot; IgG as control
T1 sequence: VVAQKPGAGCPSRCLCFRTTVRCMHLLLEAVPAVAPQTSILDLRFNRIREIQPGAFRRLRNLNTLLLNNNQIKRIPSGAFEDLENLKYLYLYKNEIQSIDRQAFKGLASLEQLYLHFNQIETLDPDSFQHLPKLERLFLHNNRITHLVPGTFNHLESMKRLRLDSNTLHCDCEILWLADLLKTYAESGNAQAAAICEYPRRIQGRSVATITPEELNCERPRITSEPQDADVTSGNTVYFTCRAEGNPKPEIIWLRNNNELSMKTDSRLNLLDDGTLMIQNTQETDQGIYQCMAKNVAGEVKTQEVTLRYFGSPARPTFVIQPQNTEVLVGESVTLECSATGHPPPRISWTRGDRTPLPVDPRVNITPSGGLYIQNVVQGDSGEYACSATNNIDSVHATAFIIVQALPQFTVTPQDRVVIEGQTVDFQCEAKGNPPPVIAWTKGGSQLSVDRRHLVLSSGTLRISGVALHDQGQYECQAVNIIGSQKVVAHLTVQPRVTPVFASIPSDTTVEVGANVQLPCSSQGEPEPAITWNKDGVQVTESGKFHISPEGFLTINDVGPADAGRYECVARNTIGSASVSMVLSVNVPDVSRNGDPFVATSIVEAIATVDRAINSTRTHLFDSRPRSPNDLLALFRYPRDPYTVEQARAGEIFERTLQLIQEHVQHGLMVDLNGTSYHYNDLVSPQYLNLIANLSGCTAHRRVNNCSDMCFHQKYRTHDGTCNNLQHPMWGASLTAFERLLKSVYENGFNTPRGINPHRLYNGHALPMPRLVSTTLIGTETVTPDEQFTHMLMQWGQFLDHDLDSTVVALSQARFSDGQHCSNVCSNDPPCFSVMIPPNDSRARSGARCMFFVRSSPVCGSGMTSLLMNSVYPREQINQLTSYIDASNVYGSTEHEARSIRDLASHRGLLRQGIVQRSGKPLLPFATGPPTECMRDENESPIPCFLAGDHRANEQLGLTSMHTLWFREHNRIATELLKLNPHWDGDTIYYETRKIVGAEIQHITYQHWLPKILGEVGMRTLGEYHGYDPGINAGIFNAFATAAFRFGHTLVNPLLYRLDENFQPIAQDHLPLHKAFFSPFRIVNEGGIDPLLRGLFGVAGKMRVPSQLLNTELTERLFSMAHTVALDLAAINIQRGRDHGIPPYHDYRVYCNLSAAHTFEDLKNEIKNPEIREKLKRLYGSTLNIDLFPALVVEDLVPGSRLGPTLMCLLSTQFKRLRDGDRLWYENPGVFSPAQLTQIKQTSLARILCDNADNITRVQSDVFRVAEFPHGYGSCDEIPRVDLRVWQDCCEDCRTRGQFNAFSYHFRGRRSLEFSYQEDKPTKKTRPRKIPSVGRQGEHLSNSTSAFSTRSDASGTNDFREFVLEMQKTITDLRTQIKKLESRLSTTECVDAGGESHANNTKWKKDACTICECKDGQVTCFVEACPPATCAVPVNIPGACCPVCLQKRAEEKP

[2] = target: T2, GST-tagged recombinant human PXDN protein (human) (UniProt Q92626); test: pull-down; lysate of 2 x 10^7 cells incubated overnight at 4 C with GST-tagged recombinant human PXDN (5 ug), anti-GST magnetic beads 2 h at 4 C, immunoblot; only the target purified
T2 sequence: T1 sequence

binding [1]: binds | binding [2]: binds
Substance: ITGB1 (from UniProt P05556 21-798) (receptor)
